First the molecules themselves.
B1: GFP-Rho2 (GFP-fused Rho2) (protein, UniProt Q10133 1-200)
chain: MLQSQPIRRKLVVVGDGACGKTSLLSVFTLGYFPTEYVPTVFENYVSDCRVDGKSVQLALWDTAGQEEYERLRPMSYAKAHIILVGFAIDSPDSLENVSTKWIEEINTLCPNVPFILVGMKADLRSDPVAIEEMRRRNQNFVKSQQAELVAQRIGARKYMECSSLTGDGVDDVFEAATRAALTVRDSENDKSSTKCCIIS
B2: GFP-Rho3 (wild-type Rho3 fused to GFP) (protein, UniProt O13928 1-205)
chain: MSSCFGSKKKPIYRKIVILGDGAAGKTSLLNVFTKGYFPQVYEPTIFENYIHDIFVDGNSIELSLWDTAGQEEYDQLRSLSYSDTHVIMICFAVDSRDSLENVITKWLPEVSSNCPGVKLVLVALKCDLRGADEEQVDHSKIIDYEEGLAAAKKINAVRYLECSAKLNRGVNEAFTEAARVALAAQPRGTKDGADESHGTGCIIA
B3: GFP-Rho3T27N (GDP-locked variant of Rho3 fused to GFP) (protein, UniProt O13928 1-205)
chain: B2 chain with T27N
B4: GFP-Rho3G22V (GTP-locked variant of Rho3 fused to GFP) (protein, UniProt O13928 1-205)
chain: B2 chain with G22V
B5: GFP-Rho3E48V (effector domain mutant of Rho3 fused to GFP) (protein, UniProt O13928 1-205)
chain: B2 chain with E48V
B6: Apl2 fused to GFP (subunit of the AP-1 complex) (protein, UniProt O43079 1-683)
chain: MVPKLFQSSRFKAFKKSETSELQKGLVSQYAYERIDAVKRTIAAMTVGKDVSSLFPDVLKNLATRDITLKKLVYLYLINYAKTHPDLCILAVNTFVKDSEEYNPTLRALAIRTMGCIRVNKIIGYLADPLRKALKDEHPYVRKAAAVCVVKMYDLDREYCASNGFIEQLQALVSDPNPVVVANAVRSLAEIHDQDPEKGYFNVVYTMTDRLMVALSECNEWGRITILNSLARFRTSDIKEAEYVCERVVPQFQHANSGVVLSAVKVIMVHIPLFSSDFTDFLYKKMAPPLLTLLSTDSEIQYVALRNINLILQKRPSIFDVKTRVFFCKYNDPLYIKMEKLKIITMLACDENINETISELRAYVSEVELEFVKQTIKCLGDVALKVPSVINDCISIFLEIYELNISYMVQEVTVVMETVLRKYPQKIDLLLPYLSRVIEELGDPRARSSMAWILGEFSHVIPTSSKLLSEMISTMADEDLQIQLALLTAVVKLSLMNGKGNDEELVQKVLNYAINQSSNQDLRDRAFAYQRLLTPENVRKAQKIVCCEKPSVSYNNNLPEALLDALLCEITTLASVYHKLPESFIGQGKFGADAIQRRAVEELNIEEANVHEAIEKGANVENLLDLDFTDPGATSASDSPITSAQPQSGSNSAMDLFMAFEAPSTNNAEPVKARSATDDLLGL
B7: Apm1 fused to GFP (subunit of the AP-1 complex) (protein, UniProt Q9HFE5 1-426)
chain: MASAIFVLNLKGKVIISRDYRADIPMSVVEKFLPLKSEVEEEQGFSTPCLTHEGINYIYIHHNDVYLLALSKMNSDAMEMLVFLRKMADVFIDYFKELQEESIRDNFVLVYELLDEIMDFGFPQTTETKILQEYITQTSNTVKKHAPPPIAMTNAISWRSEGIHYRKNEVFLDVIESVNLIAAADGTVIQSEILGKVRLKCYLSGMPELRLGLNDKVLFEAAGRTIKGNTVEMEDVKFHQCVRLARFENDRTISFIPPDGEFDLMSYRMSSNVRPLIWVECESIVHSGSRIEFMVKAKAQFKKRCIANNVQIIIPVPEDADSPRFQTSNGHVQYAPEQAAMVWNIKKFAGGKEFFMRAEMGLPSVKNEDIQVQKKRPVQLKFAIPYFTTSGIQVRYLKITEPKLNYHAMPWVRYVTQNGTEYSIRQ
B8: Aps1 fused to GFP (subunit of the AP-1 complex) (protein, UniProt Q9P7N2 1-162)
chain: MSIKFFLLVSRQGKVRLAKWFNTLSIKERAKIIRDVSSLVITRKPKMCNFVEYKGEKIVYRRYASLFFVCGIEQDDNELIILEVIHKFVECLDKYFGNVCELDLIFNFEKAYYVMEELLLAGELQESSKTNVLSAVLAGDAESEADAQQDSLQKLVGSVKKR
B9: Apl4 fused to GFP (subunit of the AP-1 complex) (protein, UniProt Q9UU81 1-836)
chain: MSSLKSFIKAVRASKTTAEEHTTILKESAQIRKNIRQGSNDMRMRRKNVAKLLYLFLLGEPTHFGQIECLKLLSSSRFMDKRLGYLAAMLLLDENQEVLTLLTNSLQNDLKSRDKFIVGLALSAFGNVAGPELARDLSNDIAELCSNHHNYISKKAVLCALRVIQKEPDLESLYIEKTDELLHSKSHGVLMAALAFAISACKINPSLISRFESQADDLIYRIRQLSTSTYSSEHNIGNISDPFLQVKILQFLSILGQNNPKIYDKMSDLLAQVCTNTDSSRNAGNAILYQAVRTILDLNSDSSLRVLGVNILAKFLGNRDNNTRYVALNMLKLVVNSEENAVQRHRSTILACLNDVDSSIQSRALELSTFLVNEANVRFMVRELLSFLDNVSDELRGSTAQYITEVTNAFAPNKRWHFDTLLRVFKSAGNFVSESTLSTFLRLIASAPELHEYAVVKLYAALKEDVSQEALTLSAFWVIGEYGQMLLSPTMNFDDDQTLPHSVSESDIVDIIEEVFNSVEASRYIIVQYGLFALTKLSARLGSSSTASRIDKIIYSYKRNKNTEVQQRSVEFHLILNDSKLSKTILEPTPAPLPPPRTTPYQNAEQKLKANKHVEKRVQESNELLDLIGLTTPSVAEPLETPVDEMTQSPQSSLSRAPSTSKKSHFEDILGLFASPAPSAQPVDSLASSFASLDFNASASQPSNNLSLLSSIPSTSKSYPPIVVFDKHDVTLTLVPSKEESTKTAVIEAKFKNKNPMTRVEKIHLEVAVPKSQKLKIQPLRTTSMEPGGETSQTLRVHGPSGSQVKLRLRISVVRQGGSNTLDQVDFGKLPSDLLQ

By UniProt entry, the sequences of proteins in these tests, tags left out. Where a name states a change or a piece, a line headed by the entry shows the natural chain unless it says otherwise.
UniProt O42998: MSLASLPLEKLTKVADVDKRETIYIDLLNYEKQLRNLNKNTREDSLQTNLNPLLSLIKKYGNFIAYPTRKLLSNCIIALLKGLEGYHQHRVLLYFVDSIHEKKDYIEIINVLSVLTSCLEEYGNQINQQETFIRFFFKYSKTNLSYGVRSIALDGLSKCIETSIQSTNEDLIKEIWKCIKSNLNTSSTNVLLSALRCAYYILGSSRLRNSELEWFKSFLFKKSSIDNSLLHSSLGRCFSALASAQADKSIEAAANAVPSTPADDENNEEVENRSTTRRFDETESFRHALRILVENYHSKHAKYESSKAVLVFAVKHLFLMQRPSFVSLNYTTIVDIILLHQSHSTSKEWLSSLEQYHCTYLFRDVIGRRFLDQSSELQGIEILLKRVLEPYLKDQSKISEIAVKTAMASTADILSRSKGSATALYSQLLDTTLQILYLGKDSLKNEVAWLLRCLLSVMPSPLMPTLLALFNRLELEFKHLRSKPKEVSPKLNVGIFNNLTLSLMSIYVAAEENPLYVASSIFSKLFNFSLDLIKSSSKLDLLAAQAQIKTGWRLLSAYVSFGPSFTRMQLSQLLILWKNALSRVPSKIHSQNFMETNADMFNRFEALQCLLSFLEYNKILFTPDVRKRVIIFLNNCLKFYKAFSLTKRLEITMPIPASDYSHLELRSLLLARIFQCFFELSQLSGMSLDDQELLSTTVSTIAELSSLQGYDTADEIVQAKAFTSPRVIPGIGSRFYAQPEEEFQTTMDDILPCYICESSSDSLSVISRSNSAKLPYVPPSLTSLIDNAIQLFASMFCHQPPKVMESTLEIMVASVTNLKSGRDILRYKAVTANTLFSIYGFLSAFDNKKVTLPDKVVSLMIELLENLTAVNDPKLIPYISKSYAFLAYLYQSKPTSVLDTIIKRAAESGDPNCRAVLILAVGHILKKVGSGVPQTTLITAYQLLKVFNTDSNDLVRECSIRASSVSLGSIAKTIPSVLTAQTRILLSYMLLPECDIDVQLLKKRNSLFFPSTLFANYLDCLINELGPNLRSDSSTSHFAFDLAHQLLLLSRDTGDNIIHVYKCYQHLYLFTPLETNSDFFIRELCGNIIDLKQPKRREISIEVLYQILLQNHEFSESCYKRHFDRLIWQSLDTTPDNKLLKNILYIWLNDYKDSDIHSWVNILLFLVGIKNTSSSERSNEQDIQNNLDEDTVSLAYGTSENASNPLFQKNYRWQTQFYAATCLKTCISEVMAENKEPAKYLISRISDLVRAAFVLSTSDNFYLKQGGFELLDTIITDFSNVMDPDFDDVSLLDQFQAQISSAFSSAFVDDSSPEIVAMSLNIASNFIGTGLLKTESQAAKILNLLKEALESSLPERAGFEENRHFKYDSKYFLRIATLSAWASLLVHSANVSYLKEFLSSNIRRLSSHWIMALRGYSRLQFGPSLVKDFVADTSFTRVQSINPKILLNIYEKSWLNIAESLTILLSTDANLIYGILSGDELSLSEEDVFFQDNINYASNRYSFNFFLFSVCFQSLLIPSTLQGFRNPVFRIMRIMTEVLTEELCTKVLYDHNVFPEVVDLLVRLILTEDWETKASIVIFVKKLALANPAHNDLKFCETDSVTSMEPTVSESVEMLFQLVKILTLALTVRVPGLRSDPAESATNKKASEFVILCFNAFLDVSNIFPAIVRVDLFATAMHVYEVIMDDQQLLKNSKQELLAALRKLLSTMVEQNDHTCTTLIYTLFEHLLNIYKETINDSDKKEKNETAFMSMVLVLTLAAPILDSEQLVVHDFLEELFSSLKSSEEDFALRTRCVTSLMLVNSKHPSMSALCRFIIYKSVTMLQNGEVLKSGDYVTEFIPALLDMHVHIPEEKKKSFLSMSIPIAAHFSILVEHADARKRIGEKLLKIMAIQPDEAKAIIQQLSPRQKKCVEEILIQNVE

Where a chain is given by its changes, count along the chain named. No constants are given. Whether binding was seen depends on the method and setting. Binding seen in cells or lysates may run through a third protein. For some assays here: Binding can be weak; no strength is given. Tags and fused reporters may be left off the sequences shown.

The target in one assay is Sip1-i4-GST (Sip1-i4 mutant protein lacking the C-terminal 485 amino acids, fused to GST) (Schizosaccharomyces pombe) (UniProt O42998). As to the kind of experiment: pull-down; purified GST fusion protein (or GST) from S. pombe, nmt1 promoter, incubated with lysates of S. pombe cells expressing GFP-fused proteins; precipitated with glutathione beads, washed extensively, SDS-PAGE, immunoblot with anti-GFP or anti-GST antibodies; only the target purified. (In general: A western blot detects proteins with antibodies after separation by electrophoresis.)
Take B1: the binding entry was “no binding”.
On the same count and under the same terms, as for B2, the entry is “binds”; as for B3, “binds”; as for B4, “binds”.
Regarding B5, the binding result was “binds”.
For the molecule B6, the binding result is on record as “binds”.
Still for that read-out and setting: next, B7: “binds”.
Same read-out and setting: as for B8, the entry is “binds”.
Turning to B9, the binding result was “binds”.

The target in the next assay is GST protein (glutathione-S-transferase alone). The assay is described as above.
Take B2: the binding entry is given as “no binding”.
On the same count and under the same terms, next, B3: “no binding”.
The same measure, in the same setting: next, B4: “no binding”.
Still for that read-out and setting: next, B5: “no binding”.
Regarding B6, the binding entry is reported as “no binding”.
The same measure, in the same setting: as for B7, the entry is “no binding”; as for B8, “no binding”; as for B9, “no binding”.

The record behind these values is publication PMC3698097.
